Measurements from PMC6846684.

Protein sequences, listed by entry. Tags and fused reporters are not part of them. Lines headed by an entry give the natural chain unless they say otherwise; changes in a name come on top.
UniProt Q03532: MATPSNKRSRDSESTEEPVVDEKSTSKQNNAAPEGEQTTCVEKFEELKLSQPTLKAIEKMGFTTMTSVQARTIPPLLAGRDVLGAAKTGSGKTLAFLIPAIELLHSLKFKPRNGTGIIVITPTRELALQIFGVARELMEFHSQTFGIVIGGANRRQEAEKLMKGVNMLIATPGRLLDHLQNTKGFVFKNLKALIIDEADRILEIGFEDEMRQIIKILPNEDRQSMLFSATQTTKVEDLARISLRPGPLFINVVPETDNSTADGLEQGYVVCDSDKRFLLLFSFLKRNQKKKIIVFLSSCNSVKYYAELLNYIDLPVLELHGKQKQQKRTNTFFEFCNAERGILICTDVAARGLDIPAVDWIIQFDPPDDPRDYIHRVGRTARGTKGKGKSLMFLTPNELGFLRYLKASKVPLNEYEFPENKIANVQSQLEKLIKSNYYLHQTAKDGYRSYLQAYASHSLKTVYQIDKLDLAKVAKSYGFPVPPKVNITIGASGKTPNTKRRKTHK
UniProt P40160: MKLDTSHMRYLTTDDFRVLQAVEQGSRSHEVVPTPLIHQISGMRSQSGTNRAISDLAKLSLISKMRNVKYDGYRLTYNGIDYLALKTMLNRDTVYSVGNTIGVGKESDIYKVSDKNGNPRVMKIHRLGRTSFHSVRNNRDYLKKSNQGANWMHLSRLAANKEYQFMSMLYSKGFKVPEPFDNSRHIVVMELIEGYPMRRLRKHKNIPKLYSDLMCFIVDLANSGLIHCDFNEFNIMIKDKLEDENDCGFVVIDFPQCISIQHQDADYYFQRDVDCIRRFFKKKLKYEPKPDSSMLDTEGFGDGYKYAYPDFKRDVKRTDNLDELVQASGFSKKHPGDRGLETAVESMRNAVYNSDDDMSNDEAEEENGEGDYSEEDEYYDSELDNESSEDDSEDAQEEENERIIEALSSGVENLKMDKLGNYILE

How the values were obtained:
[1] = molecular target: Has1-FTP (wild type Has1 with FLAG-TEV-protein-A tag) (S. cerevisiae) (UniProt Q03532); assay: affinity purification with mass spectrometry; tandem affinity purification via Has1-FTP (IgG-Sepharose, TEV elution, anti-FLAG resin, FLAG peptide elution; 100 mM NaCl, 50 mM Tris-HCl pH 7.4, 5 mM MgCl2); FLAG eluate fractionated on a 10-40% sucrose gradient; proteins of fraction 6 (pre-40S) resolved by SDS-PAGE and identified by MALDI-TOF
[2] = molecular target: Has1-FTP (wild type Has1 with FLAG-TEV-protein-A tag) (S. cerevisiae) (UniProt Q03532); assay: affinity purification with mass spectrometry; SILAC: wild type Has1-FTP culture in heavy medium mixed in equal amounts with a mutant Has1-FTP culture in light medium; endogenous Has1 depleted for 4 hours with doxycycline; tandem affinity purification via the FTP tag; FLAG eluate analysed by nLC-MS/MS; data of the three mutants pooled
[3] = molecular target: Has1-DAAD-FTP (motif II mutant E197A) (S. cerevisiae) (UniProt Q03532); assay: as above
[4] = molecular target: Has1-KA-FTP (motif I mutant K92A) (S. cerevisiae) (UniProt Q03532); assay: as above
[5] = molecular target: Has1-AAA-FTP (motif III mutant S228A/T230A) (S. cerevisiae) (UniProt Q03532); assay: as above

Row | Molecule | binding [1] | binding [2] | binding [3] | binding [4] | binding [5]
1 | Rio2 (from UniProt P40160 1-425) | binds |  |  |  | 
2 | Ltv1 (protein, UniProt P34078 1-463) MSKKFSSKNSQRYVVVHRPHDDPSFYDTDASAHVLVPVSNPNKTSPEADLRKKDVSSTKPKGRRAHVGEAALYGINFDDSEYDYTQHLKPIGLDPENSIFIASKGNEQKVEKKNIEDLFIEPKYRRDEIEKDDALPVFQRGMAKPEYLLHQQDTTDEIRGFKPDMNPALREVLEALEDEAYVVNDDVVVEDISKKTQLQGDNYGEEEKEDDIFAQLLGSGEAKDEDEFEDEFDEWDIDNVENFEDENYVKEMAQFDNIENLEDLENIDYQADVRRFQKDNSILEKHNSDDEFSNAGLDSVNPSEEEDVLGELPSIQDKSKTGKKKRKSRQKKGAMSDVSGFSMSSSAIARTETMTVLDDQYDQIINGYENYEEELEEDEEQNYQPFDMSAERSDFESMLDDFLDNYELESGGRKLAKKDKEIERLKEAADEVSKGKLSQRRNRERQEKKKLEKVTNTLSSLKF | binds |  |  |  | 
3 | Enp1 (protein, UniProt P38333 1-483) MARASSTKARKQRHDPLLKDLDAAQGTLKKINKKKLAQNDAANHDAANEEDGYIDSKASRKILQLAKEQQDEIEGEELAESERNKQFEARFTTMSYDDEDEDEDEDEEAFGEDISDFEPEGDYKEEEEIVEIDEEDAAMFEQYFKKSDDFNSLSGSYNLADKIMASIREKESQVEDMQDDEPLANEQNTSRGNISSGLKSGEGVALPEKVIKAYTTVGSILKTWTHGKLPKLFKVIPSLRNWQDVIYVTNPEEWSPHVVYEATKLFVSNLTAKESQKFINLILLERFRDNIETSEDHSLNYHIYRAVKKSLYKPSAFFKGFLFPLVETGCNVREATIAGSVLAKVSVPALHSSAALSYLLRLPFSPPTTVFIKILLDKKYALPYQTVDDCVYYFMRFRILDDGSNGEDATRVLPVIWHKAFLTFAQRYKNDITQDQRDFLLETVRQRGHKDIGPEIRRELLAGASREFVDPQEANDDLMIDVN | binds | binds | binds | binds | binds

Continued, values first:

Row | binding [1] | binding [2] | binding [3] | binding [4] | binding [5] | Molecule
4 |  | binds | binds | binds | binds | Rrp12 (protein, UniProt Q12754 1-1228) MDQDKVAFLLELEDKLAKIRSQVNSKLENQKHIAIILTAVEENIAGQATNDVSKNIVNYIISFMSLLDQAVDPSTHEIKDIQLASSSTYLLDLIFHYSPKVLLRSKFSEILTKIAPCITAEKANAPLIRAAIGCLESLLIAQDAQAWNNTYDLNVTPKRGLQGILELSLDVRPKVRKRALDAVHAVLLNPPVAPTAEHVAAVFVADFCDKQLAGILNDLSNLSNKQLKAQKTKEDINASVMRSLRLITSVVSTGQWPSSQIEPLCDVLLGVTKSSEQYLVSASFECFESMFKTMAETTISSGLAENKYLRVLDTIFALKPSNVDTLLTKSWIAVVIKGMSTYATHQPLKALRKIPGVFHIMCTYLASETPEVYQAASQCLISILSESVKDDLLLYTPSVDEKVFKNVDEIISQIAKTFIDFLSIRYSHCSREILKILVAAFNKFRYRSNPHFLKSLKIVDTWRVNEEQFMDLRNEIELVIGASISAMGPEMILAEAPLNLDNPSSERPGRAWLLPLIRDYTKNANLATFQNELAPYIKSFQSKFDKVPEESIQLRVFQTIVDQIWSTLPRFCELPMDLRESFTDEFASELSSLLYSEVELRTTICHALKVLAESNVSYAEESSSHNVLLLQRFPISEAQKNIEYLSTKSTNLLAVLFNVYTQTTPNARSYILETIDQYLKITSKEDLEKTFNNVCGLLKNSMNEESSGNVNKEKKKPQLTATLLDLIICMITYLPVSSYSALFSMFSLTVNSADALIQKRAYRIITKLSELKSGSTAVAQFISDIENVMVDSASSVQTSAKAARLTAIKTIVELLPLDHLDFIVRTVAEVILSTKDVNEKSRETAFDTLICMGRKMNEPNGIIKLFQIPGYDPTTPDQSSSISEFFKIISAGLIGESQHMVSSSITGYACLVFEFKNELDSGILMDIYDTIELYLTSNSREIVKSAIGFTKVCVLGLPEELMRPKVPELLLKLLRWSHEHTGHFKAKVKHIIERLIRRFGYDYIEANFPEEDRRLLTNIRKMRNRNKRKDEEVTTGVSDVAATKGSRFMSAFDEAVYGSDEENDNGSDQEENVAGGKMKNGAKQFIVESGDNPLDLLDSQTLAHISSTRPKKFNKNQNRARFNDDAFNFDSEGKLVVKGQPKPSTNVDDPLSAVTSGINAYLEAVKSGPVRGQRNKLKFRKNGKDSDEFGDDDDGEKDSRLMRGRVNQGNKIGKHNKKGPKFKSRKKL
5 | binds | binds | binds | binds | binds | Tsr1 (protein, UniProt Q07381 1-788) MAGHSHRSSLKNGHKSYKSKHASKGALKRLYKGKVEKEPVGTGKPDKQVSKLQRKNKAKQLRAQRILDSIENRKLFEGKNGAAKIITIVPLVNDLDPLDILYKLLKCADDEGIMVQEVDSKRIFNVHIKKFKSNLKIIIPDMTNFLNILDCAKVADFVVFGLSGVQEVDEEFGEQIIRALELQGIASYIGVISNLSAVHEKEKFQLDVKQSLESYFKHFFPSEERVYNLEKNSDALNVLRTLCQRLPRSINWRDNRGYVVADFVDFVETSPDSGDLVIEGTVRGIGFNANRLVHIPDFGDFQLNKIEKISESSQKRKIIKEKATDSLSLELDLQTVFESNMNRDTLDEYAPEGTEDWSDYDEDFEYDGLTTARYDDHGFLPGREQTSKKAAVPKGTSDYQAKWYLDDVIDANEEEEAEQTNGKDETMMEIDDEMMVEQDNEEVAGDEEYDIEDNEGFEELSPEEEERQLREFRDMEKEDREFPDEIELEPSESAIERLKRYRGLKNLYNCDWQVDEKDPSSPAEWKRLLRIGNYKNTKNRIIKETKNEAQAIAGDRIRMFIRFPKFLLEKIQDPKQLLFAVYGLLLHEHKNAVVNFSLQRWEQYDKPVPSQEPIVVQYGVRRYTIQPLFSQGSNSPNNVHKYERFLHPDTVSVATCIAPVDFTQSPAIFFKPSPTDAKNIELIGHGTFLNADHSRILAKRAILTGHPFRFHKTVVTVRYMFFRPEDVEWFKSIPLFTKSGRSGFIKESLGTHGYFKATFDGKLSAQDVVAMSLYKRMWPMPSLPWNGM

No constants are given. Whether binding was seen depends on the method and setting. Binding seen in cells or lysates may run through a third protein. Here binding means that the protein was enriched with, or labelled near, the bait; the list need not be complete.
